# In all, about 33,000 sequences were measured (“E-score (-0.5 to 0.5)”: median about -0.015, highest 2% from about 0.3 on). The list shows a part of the results.
# Target: T1, Abf1 (UniProt P14164)
# T1 sequence: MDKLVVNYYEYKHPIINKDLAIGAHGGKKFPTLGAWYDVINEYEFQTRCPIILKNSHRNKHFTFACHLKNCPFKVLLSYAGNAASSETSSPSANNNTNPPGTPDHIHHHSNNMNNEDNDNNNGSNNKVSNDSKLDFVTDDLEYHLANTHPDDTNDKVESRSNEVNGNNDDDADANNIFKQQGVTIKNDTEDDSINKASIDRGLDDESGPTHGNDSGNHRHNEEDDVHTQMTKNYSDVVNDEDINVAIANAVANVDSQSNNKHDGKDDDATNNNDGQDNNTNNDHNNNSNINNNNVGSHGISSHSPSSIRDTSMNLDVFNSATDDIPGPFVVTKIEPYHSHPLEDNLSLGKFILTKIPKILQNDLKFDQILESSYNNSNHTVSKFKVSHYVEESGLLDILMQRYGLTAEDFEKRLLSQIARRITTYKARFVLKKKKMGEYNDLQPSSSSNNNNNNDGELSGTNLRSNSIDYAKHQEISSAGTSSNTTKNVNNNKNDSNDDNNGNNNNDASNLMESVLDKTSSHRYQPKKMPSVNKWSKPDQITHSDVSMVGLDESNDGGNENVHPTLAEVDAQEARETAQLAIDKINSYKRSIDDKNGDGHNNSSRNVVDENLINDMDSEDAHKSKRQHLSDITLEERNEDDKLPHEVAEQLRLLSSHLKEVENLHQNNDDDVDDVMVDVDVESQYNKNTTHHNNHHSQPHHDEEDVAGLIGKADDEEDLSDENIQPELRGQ
# Assay: PBM E-score (8-mer binding enrichment) (E-score (-0.5 to 0.5)); higher = stronger / more preferred TF binding
# Details: protein concentration: 200 nM; construct: GST-full length
# Method in brief: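 Yeast transcription factors carrying a GST tag, as full-length proteins or DNA-binding domains, were produced by PURExpress in vitro transcription/translation. About 100-200 nM protein was applied to universal all-10-mer Agilent arrays, double-stranded by primer extension on fresh or once-stripped slides. Bound protein was detected with fluorescent anti-GST, and scans were normalised with masliner. The Universal PBM Analysis Suite gave each ungapped eight-base word, pooled with its reverse complement, an E-score, a modified Wilcoxon-Mann-Whitney statistic.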
row,Sequence,PBM E-score
1,ATGTGTTG,0.0379
2,CATACAAG,-0.0732
3,GGAATTAA,0.0739
4,GGTCAGAA,-0.0194
5,CCGGAAAC,-0.0233
6,AACCCGCA,-0.137
7,AGGCTTGG,-0.141
8,ACATAGTC,0.0796
9,GAGTCGAC,-0.0767
10,ATAAATCG,0.0826
11,AGAAAGTC,0.0405
12,CGAGTGAG,-0.011
13,GTCTTCGA,0.00901
14,ACCTGTGC,-0.132
15,GGTTGCTA,-0.0309
16,GCGTCATA,0.138
17,AGAACACT,-0.0679
18,CTACCAAA,0.0452
19,AAGAGTGA,0.238
20,TCTCCAGA,-0.0332
21,ACTCAGCA,-0.198
22,CTCGTCGC,0.0896
23,AGGTCAAA,-0.0273
24,CTCCCAAC,-0.322
25,ATAGCGAG,-0.0697

row,Sequence,PBM E-score
1,GACAGGGC,-0.129
2,GACTGGGA,-0.0196
3,TCGTCTAA,0.298
4,CCGGGATC,-0.0914
5,GACTCCTC,-0.125
6,AGAGGCCA,-0.169
7,AGTGCGAG,-0.123
8,ATAGTCTG,0.0666
9,CGTATCTC,0.064
10,ATCGTGGG,0.166
11,TGTCCCAA,0.0462
12,AGCCCGAT,-0.00479
13,AGTTAGCA,0.061
14,ACTATACG,0.171
15,ATAGGCAC,-0.0788
16,AGCGGTAA,-0.158
17,AATGCATA,-0.0219
18,AATAAAGA,0.107
19,ACAATAGG,0.0552
20,ACCAGAGG,-0.159
21,CAAACCGA,-0.0466
22,GTGAAGGA,-0.0425
23,CACAGCCC,-0.053
24,ACGAAAAT,0.23
25,AAAAATTT,0.096

row,Sequence,PBM E-score
1,GCAAAGAA,-0.0502
2,ATGAACAC,-0.0889
3,GAGCGAGC,0.0315
4,ATACGATG,0.261
5,AGGGCAAG,-0.257
6,GCTTCGCA,-0.0402
7,AACAGGGG,-0.141
8,ACTTCAAG,0.0326
9,ACTGTCTA,0.0447
10,ACGTATGG,0.136
11,AATTTCGT,0.36
12,AGATAAAA,0.0636
13,GACACATA,0.00018
14,AGGAACTC,-0.126
15,AGTAACGA,0.137
16,AAGGTAGT,-0.0911
17,AACGCAGC,-0.00127
18,CGCTTGAG,-0.111
19,AAGCGACA,0.274
20,CACTCACA,-0.0755
21,AGGTCCAT,0.163
22,TCGCTAAA,0.111
23,ACTGTTCA,-0.194
24,AATCGCCG,0.00959
25,GCCGGTGA,0.101

row,Sequence,PBM E-score
1,CACCGTCC,0.0367
2,CGATATCA,0.363
3,AGGCCGCA,0.00271
4,ATTATATA,0.181
5,CCGACACA,-0.104
6,CCCCATGA,-0.167
7,AGAAAACG,0.0425
8,GGACTCCA,-0.208
9,CCATCAAG,-0.205
10,ACCATCCA,-0.194
11,GGCAAACC,-0.197
12,AGCGTTCA,-0.274
13,TAACCTCA,0.0508
14,GCGGTGAA,-0.0455
15,AAATCTGA,0.124
16,AGCTATGA,-0.0571
17,CATCGGAC,0.0677
18,CACGTATA,0.128
19,ATTAAGCG,0.104
20,CCTGGGCA,-0.356
21,ACGTCTAT,-0.00494
22,CGTCCGGA,0.0767
23,CATACCTC,-0.0103
24,ACTCATCC,0.227
25,GCTACGAA,0.188

row,Sequence,PBM E-score
1,ATGATTGG,-0.094
2,AAACAGCC,-0.356
3,ATCAGGCA,0.0459
4,ACCTCTCT,-0.24
5,AGCCTGAC,-0.158
6,GCATGTAA,-0.0648
7,ACTAAAGC,-0.0308
8,AAAGCGTA,-0.13
9,GCACGATA,0.355
10,CAATCTGG,-0.128
11,CACATTAA,-0.068
12,TAGATCAA,0.16
13,AAAGTGAT,0.397
14,GACCCACC,-0.216
15,AACGCTCC,-0.0663
16,GATACCCA,0.107
17,ACAAGGGT,-0.145
18,ACATGGGT,0.102
19,CTGACCGC,-0.15
20,AAGGATAG,-0.154
21,TCATAGGA,0.162
22,GGAACTCA,-0.259
23,TCATGGAA,-0.0402
24,AGTAGCAC,-0.136
25,ACGAACGC,0.214

row,Sequence,PBM E-score
1,ACGTTAGG,-0.00203
2,TAAAGAAA,0.138
3,AGCTACGC,0.105
4,ACGCCTCG,-0.0798
5,CTTAGCTA,-0.165
6,CTTCTCTC,-0.053
7,GGTAGTCA,-0.138
8,ATCACCAG,0.203
9,ACTGAAAA,-0.00371
10,CGCGGATA,0.157
11,GCGTTGTA,0.0739
12,CTAGCCAC,-0.0552
13,CCATGAAA,-0.00202
14,ACGGATCT,-0.073
15,GTATTCGA,-0.0809
16,GTGGGCGA,0.0385
17,ACAGACCA,-0.166
18,ACTAGTAT,0.109
19,CAGAGGAC,-0.0805
20,ATAGAACC,-0.137
21,CCGGAGAC,-0.00839
22,CTGCACAG,0.0656
23,CACACCAG,-0.142
24,AATCCCCA,-0.126
25,ACGACGCA,0.262

row,Sequence,PBM E-score
1,AGTTTTGC,0.109
2,CGGACTAA,0.2
3,GGGAAGAC,-0.227
4,TAGCTAAA,0.202
5,AGGGATGG,-0.154
6,GCGAAGCA,0.0387
7,AGTAGCCC,-0.131
8,CGCAGTTC,0.0394
9,CCACTAAG,-0.0507
10,AGTGGCAT,-0.0451
11,CTTCGGGC,-0.221
12,GGTACTAC,0.155
13,AGGACTGC,-0.279
14,AGACTCAG,-0.235
15,CACCGATG,0.0485
16,CCCGATTA,0.118
17,TATTGGGA,0.0245
18,GGAGGACC,-0.182
19,AGATTTTA,0.0126
20,GTATCCAA,-0.0689
21,GAATTCAC,-0.0247
22,ATTGACAG,-0.0128
23,GAAAGTCC,-0.161
24,AAATTAGA,0.154
25,CTCGTTGA,0.0588

row,Sequence,PBM E-score
1,TCCAATCA,0.00606
2,CACCGGAA,0.0954
3,CCATGTGA,-0.0692
4,ACCTTTGA,-0.0803
5,CAGCCGCA,-0.103
6,GCAATCGA,-0.00403
7,CGGGTAAC,-0.0444
8,ACCAGCGA,-0.0642
9,ATTACGCG,-0.00871
10,ACGTCATG,0.197
11,ATCCTCAA,0.14
12,AATCGAGC,-0.0995
13,CTGACGGA,0.241
14,ACACCAAG,-0.226
15,CCTTCACA,-0.137
16,CACGGCGA,0.305
17,CCAAGGGA,-0.209
18,AACTTCTG,3e-05
19,CCGCGTAC,0.0414
20,ACCGACGC,-0.2
21,CCCACACC,-0.0605
22,ACTACTCC,0.0593
23,GATGTATA,0.0117
24,TCCTGGAA,-0.117
25,AGGTGACC,0.14

# Single entries from the entries so far:
# TCCTGGAA – PBM E-score: -0.117
# AATCGAGC – PBM E-score: -0.0995
# CCTTCACA – PBM E-score: -0.137
# ACCAGCGA – PBM E-score: -0.0642
# CGGGTAAC – PBM E-score: -0.0444
# ACTACTCC – PBM E-score: 0.0593

# Not a retest: entries from further up.
row,Sequence,PBM E-score
21,ACGTCTAT,-0.00494
22,CGTCCGGA,0.0767
23,CATACCTC,-0.0103

# Next part.

row,Sequence,PBM E-score
1,AGCAGCAT,-0.151
2,CGAGCTGA,0.0324
3,GGTGTTCA,-0.188
4,ACTTTTGC,-0.0352
5,GTACCTAC,0.0214
6,CTCACCGA,-0.0103
7,ACCTGTTA,-0.148
8,AAGTTGCT,0.0439
9,AGACTAGC,-0.208
10,CTAGCGTA,-0.253
11,ACCCGCCG,0.154
12,GCTAAGGA,-0.174
13,CGCACTGA,-0.0751
14,ACAGGACA,0.163
15,TACGAATA,0.25
16,CGACAGCG,-0.193
17,GGACACTA,-0.0313
18,AGTATCGA,0.0629
19,ACACCCAA,0.051

# Source: the supplement of paper PMC3334620
